Results are given in words; binding and its absence hold for the method and conditions named. In cells and extracts the contact can be indirect. A yes stands for co-enrichment or nearness to the bait. Other partners may have been found. A no says only that the protein was not detected with the bait.
Target: T1, synthetic peptide of the C-terminal tail of SSTR5, including the PDZ ligand motif (mouse)
T1 sequence (peptide): ANGLMQTSRI
Assay: affinity purification with mass spectrometry; SSTR5 C-terminal peptide coupled to NHS-sepharose (3 mg/ml matrix, 50 µl); HEK293 cell lysate in RIPA buffer; GKAP C-terminal peptide as control; bands cut from SDS gel, tryptic digestion, mass spectroscopy; only the target purified

Amino acid sequences for entries named in this document (tags omitted).
UniProt Q9NRD5: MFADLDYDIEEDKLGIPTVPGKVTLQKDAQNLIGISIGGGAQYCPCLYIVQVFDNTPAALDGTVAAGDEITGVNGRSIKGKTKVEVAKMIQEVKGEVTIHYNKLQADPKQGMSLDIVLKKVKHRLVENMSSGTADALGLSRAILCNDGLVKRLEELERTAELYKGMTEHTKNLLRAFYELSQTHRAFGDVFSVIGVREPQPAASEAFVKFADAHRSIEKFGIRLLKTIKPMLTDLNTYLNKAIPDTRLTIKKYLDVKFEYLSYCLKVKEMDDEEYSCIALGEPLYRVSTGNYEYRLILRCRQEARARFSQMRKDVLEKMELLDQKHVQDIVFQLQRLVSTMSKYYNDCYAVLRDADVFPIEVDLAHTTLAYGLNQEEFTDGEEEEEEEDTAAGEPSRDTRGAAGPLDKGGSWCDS

binding: no binding
Substance: protein interacting with C kinase 1 (PICK1), endogenous in HEK293 cells (from UniProt Q9NRD5 1-415)

— article PMC3921201
